Data as given in PubChem BioAssay AID1671195 (Yale University, 2021).
This is an unselected part of about 22,000 reagents tested. Over the whole deposit, about 1,510 (6.9%) are marked active. 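Active includes knockdowns raising or lowering LDL uptake; positive z-scores mean more uptake, negative mean less.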 Entries without a mark were called inactive. The numbers tell different reagents against one gene apart.

Purpose: 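Regulators of LDL receptor activity judged by labelled LDL uptake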 (primary screen)
System: human Huh7 hepatoma cells
Reagent: siRNA pool against human genes, 18 nM
Time to read-out: about 2 to 2.5 days of knockdown, then 8 h LDL uptake
Conditions: DiI-labelled LDL at 30 µg/ml for 8 h, in lipoprotein-deficient serum medium
Detection: 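Per-cell DiI-LDL intensity by automated imaging; well means scaled to the plate median and given as a robust z-score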
Direction: robust z-score: higher = more LDL uptake after knockdown
Call rule: 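Active when two or more replicates show a robust z-score above 2 or below -2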

gene	pool no.	robust z-score, replicate 1	robust z-score, replicate 2	robust z-score, replicate 3
ATP5IF1 (GeneID 93974)	1	2.31 (active)	2.02	2.44
MDH1B (GeneID 130752)	1	-0.0326	0.0485	0.386
ACADS (GeneID 35)	1	1.69	1.45	1.37
ZNF541 (GeneID 84215)	1	-0.853	-0.564	-0.86
FAM117A (GeneID 81558)	1	-0.888	-0.97	-0.783
LRIT1 (GeneID 26103)	1	-2.18	-1.04	-0.664
SNX19 (GeneID 399979)	1	-0.593	-1.05	-0.742
LOC441434 (retired record) (GeneID 441434)	1	0.0525	0.174	0.103
APC2 (GeneID 10297)	1	-1.2	-0.804	-1.09
ATP8B1 (GeneID 5205)	1	0.465	0.556	0.368
KPNA1 (GeneID 3836)	1	-1.23	-1.27	-1.06
RMDN1 (GeneID 51115)	1	-0.559	-1.23	-0.158
TBCEL (GeneID 219899)	1	-0.064	-0.18	0.111
TCP10L (GeneID 140290)	1	3.39 (active)	2.89	3.32
TCP10L (GeneID 140290)	2	0.816	0.184	0.498
SDHB (GeneID 6390)	1	-0.298	-0.616	-0.769
IFT46 (GeneID 56912)	1	0.469	-0.0278	1.42
RDH5 (GeneID 5959)	1	-1.07	-0.523	-1.09
TMEM52B (GeneID 120939)	1	-0.578	-0.659	-1.52
GPR157 (GeneID 80045)	1	-0.34	-0.272	-0.782
LOC389858 (retired record) (GeneID 389858)	1	0.026	-0.158	-0.0571
NUDT1 (GeneID 4521)	1	0.0661	0.0331	0.394
C1S (GeneID 716)	1	-0.512	-1.76	0.0274
NGLY1 (GeneID 55768)	1	-0.738	-0.0829	-2.1
COX6B2 (GeneID 125965)	1	0.0886	0.193	0.00292
FLJ31945 (retired record) (GeneID 440137)	1	-1.34	-1.48	-1.24
WDR5 (GeneID 11091)	1	1.08	1.05	1.28
C1orf115 (GeneID 79762)	1	-0.47	-0.821	-0.453
LINC00955 (GeneID 285492)	1	1.71	2.2	1.88
ZBTB26 (GeneID 57684)	1	0.858	0.26	0.395
PSMA5 (GeneID 5686)	1	-0.000952	-0.242	0.404
TMEM9B (GeneID 56674)	1	-1.62	-1.04	-0.662
NOVA1-DT (GeneID 102725045)	1	0.727	0.284	0.819
NUDT22 (GeneID 84304)	1	0.665	0.657	1.39
FBXO10 (GeneID 26267)	1	1.42	1.51	2.64
RHBDF2 (GeneID 79651)	1	-0.815	-0.968	-0.962
ADAM32 (GeneID 203102)	1	-0.668	-0.911	-0.545
VTI1BP2 (GeneID 389246)	1	0.365	0.48	0.624
GBP6 (GeneID 163351)	1	0.747	0.365	1.75
SPOP (GeneID 8405)	1	0.26	0.82	0.64
ZNF74 (GeneID 7625)	1	-1.31	-1.13	-0.0697
L1CAM (GeneID 3897)	1	3.98 (active)	2.2	3.98
SYT2 (GeneID 127833)	1	1.62	1.44	2.21
SWSAP1 (GeneID 126074)	1	-0.172	-0.74	-0.508
PKNOX1 (GeneID 5316)	1	0.883	0.833	1.56
ALG12 (GeneID 79087)	1	0.245	0.0152	0.197
ADH5 (GeneID 128)	1	0.813	0.884	0.797
FNDC4 (GeneID 64838)	1	-0.559	-0.465	-0.0055
GALP (GeneID 85569)	1	0.206	-1.02	-0.781
NAGLU (GeneID 4669)	1	0.424	-0.0791	0.172
PBX2 (GeneID 5089)	1	-0.237	0.126	0.0358
BCL9 (GeneID 607)	1	-0.87	-1.05	1.71
LEO1 (GeneID 123169)	1	-0.271	0.283	0.664
HCRT (GeneID 3060)	1	3.15 (active)	2.42	2.96
PKD1L2 (GeneID 114780)	1	2.53 (active)	2.74	2.44
LOC440281 (retired record) (GeneID 440281)	1	-0.0153	0.201	0.0215
ANAPC11 (GeneID 51529)	1	-0.978	-1.6	-1.7
ZBTB44 (GeneID 29068)	1	-1.87	0.145	-0.153
LOC440845 (retired record) (GeneID 440845)	1	0.4	0.186	0.0763
RAD17 (GeneID 5884)	1	-0.65	-1.79	-0.547
ERCC2 (GeneID 2068)	1	-0.467	-0.0708	-0.267
OR52E5 (GeneID 390082)	1	-0.206	-0.298	-0.432
SOD3 (GeneID 6649)	1	1.88	1.19	1.57
TMEM126B (GeneID 55863)	1	0.587	1.63	-0.674
SUSD1 (GeneID 64420)	1	0.69	-0.123	0.925
GOLGA7 (GeneID 51125)	1	-0.0469	-0.476	-0.154
S100A9 (GeneID 6280)	1	-0.387	-0.414	-0.271
KIAA2013 (GeneID 90231)	1	-1.07	-1.13	-0.788
CROCCP3 (GeneID 114819)	1	-0.375	-2.09	-1.49
CCDC134 (GeneID 79879)	1	2.24 (active)	2.54	2.81
EMC2 (GeneID 9694)	1	0.0598	2.2	0.246
POLR1HASP (GeneID 80862)	1	0.583	0.847	1.62
ARHGAP33 (GeneID 115703)	1	-0.0199	-0.171	0.0781
CAPN14 (GeneID 440854)	1	-0.345	-0.0907	-0.136
NUDT14 (GeneID 256281)	1	-1.6	-1.5	-1.51
ASS1 (GeneID 445)	1	3.86 (active)	1.29	1.34
ANKDD1A (GeneID 348094)	1	-0.12	-0.211	-0.812
TRIML2 (GeneID 205860)	1	0.291	0.115	0.488
CHID1 (GeneID 66005)	1	-0.37	-0.492	-0.623
TM9SF1 (GeneID 10548)	1	-0.223	-0.576	-0.182
SLC7A6 (GeneID 9057)	1	-0.101	-0.569	0.46
PARVG (GeneID 64098)	1	-0.878	-1.15	-1.35
ZNF454 (GeneID 285676)	1	0.859	0.997	1.33
TMEM243 (GeneID 79161)	1	-0.898	-0.783	-0.572
UROD (GeneID 7389)	1	-1.19	-1.02	-1.48
SYBU (GeneID 55638)	1	-1.33	0.0368	0.491
LOC389473 (GeneID 389473)	1	-1.85	-2.08	-1.63

Targets listed so far whose target name starts with N or n:
gene	pool no.	robust z-score, replicate 1	robust z-score, replicate 2	robust z-score, replicate 3
NUDT1 (GeneID 4521)	1	0.0661	0.0331	0.394
NGLY1 (GeneID 55768)	1	-0.738	-0.0829	-2.1
NOVA1-DT (GeneID 102725045)	1	0.727	0.284	0.819
NUDT22 (GeneID 84304)	1	0.665	0.657	1.39
NAGLU (GeneID 4669)	1	0.424	-0.0791	0.172
NUDT14 (GeneID 256281)	1	-1.6	-1.5	-1.51
